The values that follow come from paper PMC10076285, “Oncogenic CALR mutant C-terminus mediates dual binding to the thrombopoietin receptor triggering complex dimerization and activation” (Nature Communications, 2023).

No constants are given. Whether binding was seen depends on the method and setting.

The test deals with Recombinant CALR ΔC-tail (human) (UniProt P27797). Nature of the test: oligomeric profile in native conditions; recombinant proteins, with or without reducing agent (Supplementary Fig. 14); both purified.

Consider “Recombinant CALR ΔC-tail (from UniProt P27797 18-366) (domain or fragment)”, for which the binding entry was “no binding”.
